# Experimental data reported in the supplement of paper PMC8728848.
# Some of the results follow.
# Assays:
# Test in all cases: glycan array binding signal (z-score within array); higher = stronger binding
# Details in all cases: glycan notation: IUPAC condensed, linker removed
# [1] = target: Neu5Ac(a2-3)Gal(b1-4)GlcNAc(b1-6)GalNAc
# Outline: (§1)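 The binding signal is a Z-score computed within each array and averaged over linkers. Arrays of the same protein sequence at different concentrations or buffers were also averaged together. Data originate from 3228 arrays in the Consortium for Functional Glycomics database, kept only where the protein sequence was available.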
# [2] = target: Neu5Ac(a2-3)Gal(b1-4)GlcNAc(b1-6)[Gal(b1-3)]GalNAc
# Outline: as §1
# [3] = target: Neu5Ac(a2-3)Gal(b1-4)GlcNAc(b1-6)[Neu5Ac(a2-3)Gal(b1-3)]GalNAc
# Outline: as §1
# [4] = target: Neu5Ac(a2-3)Gal(b1-4)GlcNAc6S
# Outline: as §1
# [5] = target: Neu5Ac(a2-3)Gal(b1-4)[Fuc(a1-3)]GlcNAc
# Outline: as §1
# [6] = target: Neu5Ac(a2-3)Gal(b1-4)[Fuc(a1-3)]GlcNAc(b1-2)Man
# Outline: as §1
# [7] = target: Neu5Ac(a2-3)Gal(b1-4)[Fuc(a1-3)]GlcNAc(b1-3)Gal
# Outline: as §1
# [8] = target: Neu5Ac(a2-3)Gal(b1-4)[Fuc(a1-3)]GlcNAc(b1-3)Gal(b1-4)GlcNAc
# Outline: as §1
# [9] = target: Neu5Ac(a2-3)Gal(b1-4)[Fuc(a1-3)]GlcNAc(b1-3)Gal(b1-4)[Fuc(a1-3)]GlcNAc(b1-3)Gal(b1-4)[Fuc(a1-3)]GlcNAc
# Outline: as §1
# [10] = target: Neu5Ac(a2-3)Gal(b1-4)[Fuc(a1-3)]GlcNAc(b1-3)GalNAc
# Outline: as §1
# [11] = target: Neu5Ac(a2-3)Gal(b1-4)[Fuc(a1-3)]GlcNAc(b1-6)[Gal(b1-3)]GalNAc
# Outline: as §1
# [12] = target: Neu5Ac(a2-3)Gal(b1-4)[Fuc(a1-3)]GlcNAc(b1-6)[Neu5Ac(a2-3)Gal(b1-3)]GalNAc
# Outline: as §1
# [13] = target: Neu5Ac(a2-3)Gal(b1-4)[Fuc(a1-3)]GlcNAc6S
# Outline: as §1
# [14] = target: Neu5Ac(a2-3)Gal6S(b1-4)GlcNAc
# Outline: as §1
# [15] = target: Neu5Ac(a2-3)Gal6S(b1-4)[Fuc(a1-3)]GlcNAc
# Outline: as §1
# Neu5Ac(a2-3)GalNAc = target: Neu5Ac(a2-3)GalNAc
# Outline: as §1
# [16] = target: Neu5Ac(a2-3)GalNAc(b1-4)GlcNAc
# Outline: as §1
# [17] = target: Neu5Ac(a2-3)[GalNAc(b1-4)]Gal(b1-4)Glc
# Outline: as §1
# [18] = target: Neu5Ac(a2-3)[GalNAc(b1-4)]Gal(b1-4)GlcNAc
# Outline: as §1
# [19] = target: Neu5Ac(a2-3)[GalNAc(b1-4)]Gal(b1-4)GlcNAc(b1-3)GalNAc
# Outline: as §1
# [20] = target: Neu5Ac(a2-3)[Neu5Ac(a2-6)]GalNAc
# Outline: as §1
# Neu5Ac(a2-6)Gal = target: Neu5Ac(a2-6)Gal
# Outline: as §1
# [21] = target: Neu5Ac(a2-6)Gal(b1-3)GlcNAc(b1-3)[Gal(b1-4)GlcNAc(b1-6)]Gal(b1-4)Glc
# Outline: as §1
# Neu5Ac(a2-6)Gal(b1-4)Glc = target: Neu5Ac(a2-6)Gal(b1-4)Glc
# Outline: as §1
# [22] = target: Neu5Ac(a2-6)Gal(b1-4)GlcNAc
# Outline: as §1
# [23] = target: Neu5Ac(a2-6)Gal(b1-4)GlcNAc(b1-2)Man
# Outline: as §1
# [24] = target: Neu5Ac(a2-6)Gal(b1-4)GlcNAc(b1-2)Man(a1-3)Man(b1-4)GlcNAc(b1-4)GlcNAc
# Outline: as §1
# [25] = target: Neu5Ac(a2-6)Gal(b1-4)GlcNAc(b1-2)Man(a1-3)[Gal(b1-4)GlcNAc(b1-2)Man(a1-6)]Man(b1-4)GlcNAc(b1-4)GlcNAc
# Outline: as §1
# [26] = target: Neu5Ac(a2-6)Gal(b1-4)GlcNAc(b1-2)Man(a1-3)[GlcNAc(b1-2)Man(a1-6)]Man(b1-4)GlcNAc(b1-4)GlcNAc
# Outline: as §1
# [27] = target: Neu5Ac(a2-6)Gal(b1-4)GlcNAc(b1-2)Man(a1-3)[GlcNAc(b1-4)][Neu5Ac(a2-6)Gal(b1-4)GlcNAc(b1-2)Man(a1-6)]Man(b1-4)GlcNAc(b1-4)GlcNAc
# Outline: as §1
# [28] = target: Neu5Ac(a2-6)Gal(b1-4)GlcNAc(b1-2)Man(a1-3)[Man(a1-6)]Man(b1-4)GlcNAc(b1-4)GlcNAc
# Outline: as §1
# [29] = target: Neu5Ac(a2-6)Gal(b1-4)GlcNAc(b1-2)Man(a1-3)[Neu5Ac(a2-3)Gal(b1-4)GlcNAc(b1-2)Man(a1-6)]Man(b1-4)GlcNAc(b1-4)GlcNAc
# Outline: as §1
# [30] = target: Neu5Ac(a2-6)Gal(b1-4)GlcNAc(b1-2)Man(a1-3)[Neu5Ac(a2-6)Gal(b1-4)GlcNAc(b1-2)Man(a1-6)]Man(b1-4)GlcNAc(b1-4)GlcNAc
# Outline: as §1
# [31] = target: Neu5Ac(a2-6)Gal(b1-4)GlcNAc(b1-2)Man(a1-3)[Neu5Ac(a2-6)Gal(b1-4)GlcNAc(b1-2)Man(a1-6)]Man(b1-4)GlcNAc(b1-4)[Fuc(a1-6)]GlcNAc
# Outline: as §1
# [32] = target: Neu5Ac(a2-6)Gal(b1-4)GlcNAc(b1-2)Man(a1-6)Man(b1-4)GlcNAc(b1-4)GlcNAc
# Outline: as §1
# [33] = target: Neu5Ac(a2-6)Gal(b1-4)GlcNAc(b1-2)Man(a1-6)[Gal(b1-4)GlcNAc(b1-2)Man(a1-3)]Man(b1-4)GlcNAc(b1-4)GlcNAc
# Outline: as §1
# [34] = target: Neu5Ac(a2-6)Gal(b1-4)GlcNAc(b1-2)Man(a1-6)[GlcNAc(b1-2)Man(a1-3)]Man(b1-4)GlcNAc(b1-4)GlcNAc
# Outline: as §1
# [35] = target: Neu5Ac(a2-6)Gal(b1-4)GlcNAc(b1-2)Man(a1-6)[Man(a1-3)]Man(b1-4)GlcNAc(b1-4)GlcNAc
# Outline: as §1
# [36] = target: Neu5Ac(a2-6)Gal(b1-4)GlcNAc(b1-2)[Neu5Ac(a2-6)Gal(b1-4)GlcNAc(b1-4)]Man(a1-3)[GlcNAc(b1-4)][Neu5Ac(a2-6)Gal(b1-4)GlcNAc(b1-2)[Neu5Ac(a2-6)Gal(b1-4)GlcNAc(b1-6)]Man(a1-6)]Man(b1-4)GlcNAc(b1-4)GlcNAc
# Outline: as §1
# [37] = target: Neu5Ac(a2-6)Gal(b1-4)GlcNAc(b1-2)[Neu5Ac(a2-6)Gal(b1-4)GlcNAc(b1-4)]Man(a1-3)[GlcNAc(b1-4)][Neu5Ac(a2-6)Gal(b1-4)GlcNAc(b1-4)Man(a1-6)]Man(b1-4)GlcNAc(b1-4)GlcNAc
# Outline: as §1
# [38] = target: Neu5Ac(a2-6)Gal(b1-4)GlcNAc(b1-2)[Neu5Ac(a2-6)Gal(b1-4)GlcNAc(b1-6)]Man(a1-6)[Neu5Ac(a2-6)Gal(b1-4)GlcNAc(b1-2)Man(a1-3)][GlcNAc(b1-4)]Man(b1-4)GlcNAc(b1-4)GlcNAc
# Outline: as §1
# [39] = target: Neu5Ac(a2-6)Gal(b1-4)GlcNAc(b1-3)Gal(b1-3)GlcNAc
# Outline: as §1
# [40] = target: Neu5Ac(a2-6)Gal(b1-4)GlcNAc(b1-3)Gal(b1-4)GlcNAc
# Outline: as §1
# [41] = target: Neu5Ac(a2-6)Gal(b1-4)GlcNAc(b1-3)Gal(b1-4)GlcNAc(b1-2)Man(a1-3)[Neu5Ac(a2-6)Gal(b1-4)GlcNAc(b1-3)Gal(b1-4)GlcNAc(b1-2)Man(a1-6)]GalNAc
# Outline: as §1
# [42] = target: Neu5Ac(a2-6)Gal(b1-4)GlcNAc(b1-3)Gal(b1-4)GlcNAc(b1-3)Gal(b1-4)GlcNAc
# Outline: as §1
binder,measurement,setting,value
SJCP3842 (Schistosoma japonicum) (protein) MFKMRIINLVNISTVLLLINLLQTKSRLVGKENGFMLTVSIYGAQLSDKMTSVPVSWTIDYEDPEKSAFKKLVTDSCDTFSEYVKSQIPKGSVDGQCTSHIFQRPGSGSGVSISLTLSFIYVDVTQPDTVALKTELEKHFANFVTIHSHKITQAQFRINQKAIVIPTGDKDAIDGSKWKIIAIIALVALAIVVIGGFIYICVK,glycan array binding signal (z-score),[1],-0.908
same,glycan array binding signal (z-score),[2],-0.78
same,glycan array binding signal (z-score),[3],-0.93
same,glycan array binding signal (z-score),[4],-1.01
same,glycan array binding signal (z-score),[5],0.037
same,glycan array binding signal (z-score),[6],-1.01
same,glycan array binding signal (z-score),[7],1.63
same,glycan array binding signal (z-score),[8],0.531
same,glycan array binding signal (z-score),[9],-0.789
same,glycan array binding signal (z-score),[10],2.37
same,glycan array binding signal (z-score),[11],1.06
same,glycan array binding signal (z-score),[12],-0.822
same,glycan array binding signal (z-score),[13],0.687
same,glycan array binding signal (z-score),[14],0.092
same,glycan array binding signal (z-score),[15],-1.76
same,glycan array binding signal (z-score),Neu5Ac(a2-3)GalNAc,1.51
same,glycan array binding signal (z-score),[16],0.42
same,glycan array binding signal (z-score),[17],-0.08
same,glycan array binding signal (z-score),[18],-0.779
same,glycan array binding signal (z-score),[19],0.014
same,glycan array binding signal (z-score),[20],-0.29
same,glycan array binding signal (z-score),Neu5Ac(a2-6)Gal,-0.689
same,glycan array binding signal (z-score),[21],0.57
same,glycan array binding signal (z-score),Neu5Ac(a2-6)Gal(b1-4)Glc,-0.376
same,glycan array binding signal (z-score),[22],-1.26
same,glycan array binding signal (z-score),[23],0.071
same,glycan array binding signal (z-score),[24],-0.689
same,glycan array binding signal (z-score),[25],-0.673
same,glycan array binding signal (z-score),[26],-0.493
same,glycan array binding signal (z-score),[27],-0.194
same,glycan array binding signal (z-score),[28],0.135
same,glycan array binding signal (z-score),[29],-1.16
same,glycan array binding signal (z-score),[30],0.761
same,glycan array binding signal (z-score),[31],1.14
same,glycan array binding signal (z-score),[32],2.88
same,glycan array binding signal (z-score),[33],-0.274
same,glycan array binding signal (z-score),[34],-1.19
same,glycan array binding signal (z-score),[35],-0.162
same,glycan array binding signal (z-score),[36],-0.722
same,glycan array binding signal (z-score),[37],-0.518
same,glycan array binding signal (z-score),[38],-1.61
same,glycan array binding signal (z-score),[39],-1.48
same,glycan array binding signal (z-score),[40],0.832
same,glycan array binding signal (z-score),[41],0.678
same,glycan array binding signal (z-score),[42],1.04

# Quoted at random: 2 records from the list
binder,measurement,setting,value
SJCP3842 (Schistosoma japonicum) (protein) MFKMRIINLVNISTVLLLINLLQTKSRLVGKENGFMLTVSIYGAQLSDKMTSVPVSWTIDYEDPEKSAFKKLVTDSCDTFSEYVKSQIPKGSVDGQCTSHIFQRPGSGSGVSISLTLSFIYVDVTQPDTVALKTELEKHFANFVTIHSHKITQAQFRINQKAIVIPTGDKDAIDGSKWKIIAIIALVALAIVVIGGFIYICVK,glycan array binding signal (z-score),[25],-0.673
same,glycan array binding signal (z-score),[17],-0.08
